{"source": "patent US20140243371A1", "about": "(priority 2011, published 2014)", "key": {"[1]": {"tested_on": "Phytophthora infestans", "format": "in vivo", "conditions": "200 ppm; tomato leaf disks, preventative, compared to untreated, assessed 5-7 days after application"}, "[2]": {"tested_on": "Pythium ultimum", "test": "Pythium ultimum / liquid culture (seedling damping off)", "format": "cell-based", "conditions": "200 ppm; liquid culture in PDB, inhibition of growth determined photometrically 2-3 days after application"}, "[3]": {"tested_on": "Plasmopara viticola", "test": "Plasmopara viticola / grape / leaf disc preventative (grape downy mildew)", "format": "in vivo", "conditions": "200 ppm, grape vine leaf disks, compared to untreated, assessed 6-8 days after application"}}, "note": "Some entries share one result that the patent states for a list of compounds.", "data": [{"smiles": "Cc1cc(C(F)(F)F)nn1CC(=O)N1CCC(c2nc(NC(=O)C(C(=O)Nc3ccc(Cl)cc3)C(=O)c3ccccc3)cs2)CC1", "note": "(centres unmarked) [I.s.001]", "values": [{"measurement": "disease control", "setting": "[1]", "value": "at least 80%"}]}, {"smiles": "CCOC(=O)C(C(=O)Nc1csc(C2CCN(C(=O)Cn3nc(C(F)(F)F)cc3C)CC2)n1)C(=O)c1ccc(Br)cc1F", "note": "(centres unmarked) [I.o.001]", "values": [{"measurement": "disease control", "setting": "[1]", "value": "at least 80%"}, {"measurement": "disease control", "setting": "[2]", "value": "at least 80%"}, {"measurement": "disease control", "setting": "[3]", "value": "at least 80%"}]}, {"smiles": "CCOC(=O)C(C(=O)Nc1csc(C2CCN(C(=O)Cn3nc(C(F)(F)F)cc3C)CC2)n1)C(=O)c1ccc(C)cc1F", "note": "(centres unmarked) [I.c.001]", "values": [{"measurement": "disease control", "setting": "[1]", "value": "at least 80%"}, {"measurement": "disease control", "setting": "[2]", "value": "at least 80%"}, {"measurement": "disease control", "setting": "[3]", "value": "at least 80%"}]}, {"smiles": "COc1ccc(C(=O)C(C(=O)Nc2ccccc2)C(=O)Nc2csc(C3CCN(C(=O)Cn4nc(C(F)(F)F)cc4C)CC3)n2)cc1", "note": "(centres unmarked) [I.aa.001]", "values": [{"measurement": "disease control", "setting": "[1]", "value": "at least 80%"}]}, {"smiles": "CCOC(=O)C(C(=O)Nc1csc(C2CCN(C(=O)Cn3nc(C(F)(F)F)cc3C)CC2)n1)C(=O)c1ccoc1", "note": "(centres unmarked) [I.z.001]", "values": [{"measurement": "disease control", "setting": "[1]", "value": "at least 80%"}, {"measurement": "disease control", "setting": "[2]", "value": "at least 80%"}, {"measurement": "disease control", "setting": "[3]", "value": "at least 80%"}]}, {"smiles": "CCOC(=O)C(C(=O)Nc1csc(C2CCN(C(=O)Cn3nc(C(F)(F)F)cc3C)CC2)n1)C(=O)c1ccc(OC)c(OC)c1", "note": "(centres unmarked) [I.ad.001]", "values": [{"measurement": "disease control", "setting": "[3]", "value": "at least 80%"}]}, {"smiles": "COC(=O)C(C(=O)Nc1csc(C2CCN(C(=O)Cn3nc(C(F)(F)F)cc3C)CC2)n1)C(=O)c1c(Cl)cccc1Cl", "note": "(centres unmarked) [I.f.001]", "values": [{"measurement": "disease control", "setting": "[1]", "value": "at least 80%"}, {"measurement": "disease control", "setting": "[3]", "value": "at least 80%"}]}, {"smiles": "CCOC(=O)C(C(=O)Nc1csc(C2CCN(C(=O)Cn3nc(C(F)(F)F)cc3C)CC2)n1)C(=O)c1cc([N+](=O)[O-])ccc1OC", "note": "(centres unmarked) [I.ab.001]", "values": [{"measurement": "disease control", "setting": "[1]", "value": "at least 80%"}, {"measurement": "disease control", "setting": "[3]", "value": "at least 80%"}]}, {"smiles": "Cc1cc(C(F)(F)F)nn1CC(=O)N1CCC(c2nc(NC(=O)C(C(=O)NC(C)(C)C)C(=O)c3ccccc3)cs2)CC1", "note": "(centres unmarked) [I.m.001]", "values": [{"measurement": "disease control", "setting": "[1]", "value": "at least 80%"}, {"measurement": "disease control", "setting": "[2]", "value": "at least 80%"}, {"measurement": "disease control", "setting": "[3]", "value": "at least 80%"}]}, {"smiles": "CCOC(=O)C(C(=O)CC(C)(O)c1ccc(Cl)cc1)C(=O)Nc1csc(C2CCN(C(=O)Cn3nc(C(F)(F)F)cc3C)CC2)n1", "note": "(centres unmarked) [I.b.001]", "values": [{"measurement": "disease control", "setting": "[1]", "value": "at least 80%"}, {"measurement": "disease control", "setting": "[2]", "value": "at least 80%"}, {"measurement": "disease control", "setting": "[3]", "value": "at least 80%"}]}, {"smiles": "CCOC(=O)C(C(=O)Nc1csc(C2CCN(C(=O)Cn3nc(C(F)(F)F)cc3C)CC2)n1)C(=O)c1ccc(S(C)(=O)=O)cc1F", "note": "(centres unmarked) [I.j.001]", "values": [{"measurement": "disease control", "setting": "[1]", "value": "at least 80%"}, {"measurement": "disease control", "setting": "[3]", "value": "at least 80%"}]}, {"smiles": "CCOC(=O)C(C(=O)Nc1csc(C2CCN(C(=O)Cn3nc(C(F)(F)F)cc3C)CC2)n1)C(=O)c1ccc(Cl)c(Cl)c1Cl", "note": "(centres unmarked) [I.x.001]", "values": [{"measurement": "disease control", "setting": "[1]", "value": "at least 80%"}, {"measurement": "disease control", "setting": "[3]", "value": "at least 80%"}]}, {"smiles": "COC(=O)C(C(=O)Nc1csc(C2CCN(C(=O)Cn3nc(C(F)(F)F)cc3C)CC2)n1)C(=O)c1ccc(S(C)(=O)=O)cc1Cl", "note": "(centres unmarked) [I.ac.001]", "values": [{"measurement": "disease control", "setting": "[1]", "value": "at least 80%"}, {"measurement": "disease control", "setting": "[3]", "value": "at least 80%"}]}, {"smiles": "CCOC(=O)C(C(=O)Nc1csc(C2CCN(C(=O)Cn3nc(C(F)(F)F)cc3C)CC2)n1)C(=O)c1ccc(F)cc1", "note": "(centres unmarked) [I.i.001]", "values": [{"measurement": "disease control", "setting": "[2]", "value": "at least 80%"}, {"measurement": "disease control", "setting": "[3]", "value": "at least 80%"}]}, {"smiles": "COC(=O)C(C(=O)Nc1csc(C2CCN(C(=O)Cn3nc(C(F)(F)F)cc3C)CC2)n1)C(=O)c1ccc(Cl)cc1[N+](=O)[O-]", "note": "(centres unmarked) [I.k.001]", "values": [{"measurement": "disease control", "setting": "[1]", "value": "at least 80%"}, {"measurement": "disease control", "setting": "[3]", "value": "at least 80%"}]}, {"smiles": "CCOC(=O)C(C(=O)Nc1csc(C2CCN(C(=O)Cn3nc(C(F)(F)F)cc3C)CC2)n1)C(=O)c1ccc(OC)cc1", "note": "(centres unmarked) [I.l.001]", "values": [{"measurement": "disease control", "setting": "[1]", "value": "at least 80%"}, {"measurement": "disease control", "setting": "[3]", "value": "at least 80%"}]}, {"smiles": "CCOC(=O)C(C(=O)Nc1csc(C2CCN(C(=O)Cn3nc(C(F)(F)F)cc3C)CC2)n1)C(=O)c1ccc([N+](=O)[O-])cc1F", "note": "(centres unmarked) [I.q.001]", "values": [{"measurement": "disease control", "setting": "[1]", "value": "at least 80%"}, {"measurement": "disease control", "setting": "[2]", "value": "at least 80%"}, {"measurement": "disease control", "setting": "[3]", "value": "at least 80%"}]}, {"smiles": "CCOC(=O)C(C(=O)Nc1csc(C2CCN(C(=O)Cn3nc(C(F)(F)F)cc3C)CC2)n1)C(=O)c1ccc([N+](=O)[O-])cc1", "note": "(centres unmarked) [I.v.001]", "values": [{"measurement": "disease control", "setting": "[1]", "value": "at least 80%"}, {"measurement": "disease control", "setting": "[3]", "value": "at least 80%"}]}, {"smiles": "CCOC(=O)C(C(=O)Nc1csc(C2CCN(C(=O)Cn3nc(C(F)(F)F)cc3C)CC2)n1)C(=O)c1ccc(Cl)cc1Cl", "note": "(centres unmarked) [I.p.001]", "values": [{"measurement": "disease control", "setting": "[1]", "value": "at least 80%"}, {"measurement": "disease control", "setting": "[3]", "value": "at least 80%"}]}, {"smiles": "CCOC(=O)C(C(=O)Nc1csc(C2CCN(C(=O)Cn3nc(C(F)(F)F)cc3C)CC2)n1)C(=O)c1ccccc1F", "note": "(centres unmarked) [I.t.001]", "values": [{"measurement": "disease control", "setting": "[1]", "value": "at least 80%"}, {"measurement": "disease control", "setting": "[2]", "value": "at least 80%"}, {"measurement": "disease control", "setting": "[3]", "value": "at least 80%"}]}, {"smiles": "CCOC(=O)C(C(=O)Nc1csc(C2CCN(C(=O)Cn3nc(C(F)(F)F)cc3C)CC2)n1)C(=O)c1ccccc1Cl", "note": "(centres unmarked) [I.u.001]", "values": [{"measurement": "disease control", "setting": "[1]", "value": "at least 80%"}, {"measurement": "disease control", "setting": "[3]", "value": "at least 80%"}]}, {"smiles": "CCOC(=O)C(C(=O)Nc1csc(C2CCN(C(=O)Cn3nc(C(F)(F)F)cc3C)CC2)n1)C(=O)c1ccc(Cl)cc1", "note": "(centres unmarked) [I.h.001]", "values": [{"measurement": "disease control", "setting": "[1]", "value": "at least 80%"}, {"measurement": "disease control", "setting": "[2]", "value": "at least 80%"}, {"measurement": "disease control", "setting": "[3]", "value": "at least 80%"}]}, {"smiles": "CCOC(=O)C(C(=O)Nc1csc(C2CCN(C(=O)Cn3nc(C(F)(F)F)cc3C)CC2)n1)C(=O)c1ccc(F)cc1F", "note": "(centres unmarked) [I.w.001]", "values": [{"measurement": "disease control", "setting": "[1]", "value": "at least 80%"}, {"measurement": "disease control", "setting": "[2]", "value": "at least 80%"}, {"measurement": "disease control", "setting": "[3]", "value": "at least 80%"}]}, {"smiles": "CCOC(=O)C(C(=O)Nc1csc(C2CCN(C(=O)Cn3nc(C(F)(F)F)cc3C)CC2)n1)C(=O)c1ccc(Cl)cc1F", "note": "(centres unmarked) [I.y.001]", "values": [{"measurement": "disease control", "setting": "[1]", "value": "at least 80%"}, {"measurement": "disease control", "setting": "[2]", "value": "at least 80%"}, {"measurement": "disease control", "setting": "[3]", "value": "at least 80%"}]}, {"smiles": "COC(=O)C(C(=O)Nc1csc(C2CCN(C(=O)Cn3nc(C(F)(F)F)cc3C)CC2)n1)C(=O)c1ccc(Cl)cc1F", "note": "(centres unmarked) [I.ag.001]", "values": [{"measurement": "disease control", "setting": "[1]", "value": "at least 80%"}, {"measurement": "disease control", "setting": "[2]", "value": "at least 80%"}, {"measurement": "disease control", "setting": "[3]", "value": "at least 80%"}]}, {"smiles": "COC(=O)C(C(=O)Nc1csc(C2CCN(C(=O)Cn3nc(C(F)(F)F)cc3C)CC2)n1)C(=O)c1cccc(C(F)(F)F)c1", "note": "(centres unmarked) [I.ae.001]", "values": [{"measurement": "disease control", "setting": "[1]", "value": "at least 80%"}, {"measurement": "disease control", "setting": "[2]", "value": "at least 80%"}, {"measurement": "disease control", "setting": "[3]", "value": "at least 80%"}]}, {"smiles": "CCOC(=O)C(C(=O)Nc1csc(C2CCN(C(=O)Cn3nc(C(F)(F)F)cc3C)CC2)n1)C(=O)c1ccc([N+](=O)[O-])cc1Cl", "note": "(centres unmarked) [I.n.001]", "values": [{"measurement": "disease control", "setting": "[1]", "value": "at least 80%"}, {"measurement": "disease control", "setting": "[2]", "value": "at least 80%"}, {"measurement": "disease control", "setting": "[3]", "value": "at least 80%"}]}, {"smiles": "CCOC(=O)C(C(=O)Nc1csc(C2CCN(C(=O)Cn3nc(C(F)(F)F)cc3C)CC2)n1)C(=O)c1ccccc1", "note": "(centres unmarked) [I.ah.001]", "values": [{"measurement": "disease control", "setting": "[1]", "value": "at least 80%"}, {"measurement": "disease control", "setting": "[3]", "value": "at least 80%"}]}, {"smiles": "CCOC(=O)C(C(=O)Nc1csc(C2CCN(C(=O)Cn3nc(C(F)(F)F)cc3C)CC2)n1)C(=O)c1ccccc1S(C)(=O)=O", "note": "(centres unmarked) [I.g.001]", "values": [{"measurement": "disease control", "setting": "[1]", "value": "at least 80%"}, {"measurement": "disease control", "setting": "[3]", "value": "at least 80%"}]}]}
